Measured values published in the supplement of paper PMC10849652.
Some of the results follow.

Chains of the proteins cited; added tags and fusions are not shown. Lines headed by an entry give the natural chain unless they say otherwise; changes in a name come on top.
UniProt Q96JJ7: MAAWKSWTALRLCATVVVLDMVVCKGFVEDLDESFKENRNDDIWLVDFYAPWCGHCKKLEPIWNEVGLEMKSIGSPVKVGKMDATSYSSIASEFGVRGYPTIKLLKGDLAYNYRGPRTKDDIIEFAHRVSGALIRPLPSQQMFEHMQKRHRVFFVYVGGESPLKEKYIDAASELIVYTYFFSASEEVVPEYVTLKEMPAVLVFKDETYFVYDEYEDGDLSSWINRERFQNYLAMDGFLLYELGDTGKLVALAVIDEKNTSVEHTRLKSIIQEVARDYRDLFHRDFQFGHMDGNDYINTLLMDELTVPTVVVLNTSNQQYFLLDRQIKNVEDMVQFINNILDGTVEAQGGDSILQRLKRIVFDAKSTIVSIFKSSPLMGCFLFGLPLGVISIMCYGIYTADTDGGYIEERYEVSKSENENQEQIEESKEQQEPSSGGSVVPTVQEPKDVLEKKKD
UniProt Q9NYL9: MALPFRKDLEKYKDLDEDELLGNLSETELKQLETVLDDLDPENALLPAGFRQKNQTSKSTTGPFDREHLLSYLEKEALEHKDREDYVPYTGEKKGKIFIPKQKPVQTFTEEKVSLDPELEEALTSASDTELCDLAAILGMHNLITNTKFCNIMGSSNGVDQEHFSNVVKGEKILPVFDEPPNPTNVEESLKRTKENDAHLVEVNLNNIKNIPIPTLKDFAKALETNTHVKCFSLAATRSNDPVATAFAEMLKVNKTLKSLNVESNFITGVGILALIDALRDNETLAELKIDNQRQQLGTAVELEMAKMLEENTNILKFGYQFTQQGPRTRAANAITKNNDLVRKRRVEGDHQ
UniProt Q15363: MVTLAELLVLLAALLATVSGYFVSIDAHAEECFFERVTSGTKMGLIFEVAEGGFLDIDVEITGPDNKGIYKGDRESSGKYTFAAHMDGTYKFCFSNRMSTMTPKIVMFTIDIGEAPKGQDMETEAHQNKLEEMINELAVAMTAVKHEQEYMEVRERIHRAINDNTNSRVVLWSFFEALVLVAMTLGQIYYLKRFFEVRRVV
UniProt Q7Z7H5: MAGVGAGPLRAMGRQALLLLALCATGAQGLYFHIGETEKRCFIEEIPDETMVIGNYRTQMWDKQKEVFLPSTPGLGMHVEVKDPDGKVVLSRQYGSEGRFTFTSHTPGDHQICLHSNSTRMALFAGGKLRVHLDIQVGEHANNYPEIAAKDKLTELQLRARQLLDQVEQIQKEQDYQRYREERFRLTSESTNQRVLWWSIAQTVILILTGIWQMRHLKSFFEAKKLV
UniProt Q71RG4: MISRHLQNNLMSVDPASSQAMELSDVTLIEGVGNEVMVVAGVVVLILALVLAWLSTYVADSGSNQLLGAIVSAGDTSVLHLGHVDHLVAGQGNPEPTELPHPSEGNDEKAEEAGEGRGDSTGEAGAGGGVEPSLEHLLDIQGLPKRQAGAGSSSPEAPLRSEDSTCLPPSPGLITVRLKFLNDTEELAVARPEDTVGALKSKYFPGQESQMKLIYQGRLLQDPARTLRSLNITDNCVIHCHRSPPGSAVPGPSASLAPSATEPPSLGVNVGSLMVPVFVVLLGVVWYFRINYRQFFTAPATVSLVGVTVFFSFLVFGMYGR
UniProt P49755: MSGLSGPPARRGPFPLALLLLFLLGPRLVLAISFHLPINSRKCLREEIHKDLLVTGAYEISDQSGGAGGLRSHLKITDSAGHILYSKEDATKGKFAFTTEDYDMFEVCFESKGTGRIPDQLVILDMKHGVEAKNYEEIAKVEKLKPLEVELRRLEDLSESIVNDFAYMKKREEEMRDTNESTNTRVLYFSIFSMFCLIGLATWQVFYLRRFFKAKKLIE
UniProt P42167: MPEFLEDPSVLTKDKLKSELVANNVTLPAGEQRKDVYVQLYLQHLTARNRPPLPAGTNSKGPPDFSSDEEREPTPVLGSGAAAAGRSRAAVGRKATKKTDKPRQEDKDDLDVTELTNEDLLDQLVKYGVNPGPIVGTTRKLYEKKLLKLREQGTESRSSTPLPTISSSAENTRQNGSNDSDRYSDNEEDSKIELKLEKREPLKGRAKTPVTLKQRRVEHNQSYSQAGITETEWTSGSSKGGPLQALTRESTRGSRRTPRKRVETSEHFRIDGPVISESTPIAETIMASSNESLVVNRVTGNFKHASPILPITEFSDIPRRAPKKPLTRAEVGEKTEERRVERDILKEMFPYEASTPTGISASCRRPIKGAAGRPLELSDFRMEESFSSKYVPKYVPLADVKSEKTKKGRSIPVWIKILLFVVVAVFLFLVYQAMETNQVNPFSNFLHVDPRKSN
UniProt Q6ZT21: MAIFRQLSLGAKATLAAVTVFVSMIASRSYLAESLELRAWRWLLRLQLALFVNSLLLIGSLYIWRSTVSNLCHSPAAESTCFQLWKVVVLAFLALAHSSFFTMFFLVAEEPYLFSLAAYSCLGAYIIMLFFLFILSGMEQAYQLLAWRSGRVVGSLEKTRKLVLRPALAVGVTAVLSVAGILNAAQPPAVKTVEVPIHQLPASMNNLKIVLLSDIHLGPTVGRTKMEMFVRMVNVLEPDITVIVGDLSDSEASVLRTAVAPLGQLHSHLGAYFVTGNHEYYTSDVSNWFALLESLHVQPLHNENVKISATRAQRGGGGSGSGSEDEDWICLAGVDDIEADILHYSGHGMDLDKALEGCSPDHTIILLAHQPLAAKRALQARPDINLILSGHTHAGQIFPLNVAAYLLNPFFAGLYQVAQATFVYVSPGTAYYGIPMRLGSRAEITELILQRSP
UniProt A5PLL7: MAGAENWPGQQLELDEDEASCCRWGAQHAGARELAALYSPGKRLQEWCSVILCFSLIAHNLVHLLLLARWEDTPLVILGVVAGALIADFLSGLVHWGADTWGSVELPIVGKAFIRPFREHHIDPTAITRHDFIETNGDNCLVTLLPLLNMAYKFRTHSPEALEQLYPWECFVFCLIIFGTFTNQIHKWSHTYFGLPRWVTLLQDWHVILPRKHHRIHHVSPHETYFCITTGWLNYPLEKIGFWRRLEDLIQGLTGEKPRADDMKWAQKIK
UniProt Q9H1E5: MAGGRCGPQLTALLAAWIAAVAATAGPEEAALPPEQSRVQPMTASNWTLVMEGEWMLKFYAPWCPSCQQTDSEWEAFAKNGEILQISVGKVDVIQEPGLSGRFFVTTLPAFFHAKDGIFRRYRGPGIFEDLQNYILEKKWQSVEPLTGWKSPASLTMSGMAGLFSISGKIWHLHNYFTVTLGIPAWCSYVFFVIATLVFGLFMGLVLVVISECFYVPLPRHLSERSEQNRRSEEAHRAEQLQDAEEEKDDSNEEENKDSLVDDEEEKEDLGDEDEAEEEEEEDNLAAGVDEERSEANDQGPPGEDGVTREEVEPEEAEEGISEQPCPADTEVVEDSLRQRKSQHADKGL
UniProt Q9NVV0: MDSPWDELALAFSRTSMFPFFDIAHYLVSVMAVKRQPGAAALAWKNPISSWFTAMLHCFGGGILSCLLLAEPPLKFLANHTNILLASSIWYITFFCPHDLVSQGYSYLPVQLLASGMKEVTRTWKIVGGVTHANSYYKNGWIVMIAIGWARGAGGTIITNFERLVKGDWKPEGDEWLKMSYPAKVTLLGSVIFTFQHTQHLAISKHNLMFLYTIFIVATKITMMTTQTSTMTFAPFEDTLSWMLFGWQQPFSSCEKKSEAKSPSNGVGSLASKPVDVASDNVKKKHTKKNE
UniProt Q9Y4G6: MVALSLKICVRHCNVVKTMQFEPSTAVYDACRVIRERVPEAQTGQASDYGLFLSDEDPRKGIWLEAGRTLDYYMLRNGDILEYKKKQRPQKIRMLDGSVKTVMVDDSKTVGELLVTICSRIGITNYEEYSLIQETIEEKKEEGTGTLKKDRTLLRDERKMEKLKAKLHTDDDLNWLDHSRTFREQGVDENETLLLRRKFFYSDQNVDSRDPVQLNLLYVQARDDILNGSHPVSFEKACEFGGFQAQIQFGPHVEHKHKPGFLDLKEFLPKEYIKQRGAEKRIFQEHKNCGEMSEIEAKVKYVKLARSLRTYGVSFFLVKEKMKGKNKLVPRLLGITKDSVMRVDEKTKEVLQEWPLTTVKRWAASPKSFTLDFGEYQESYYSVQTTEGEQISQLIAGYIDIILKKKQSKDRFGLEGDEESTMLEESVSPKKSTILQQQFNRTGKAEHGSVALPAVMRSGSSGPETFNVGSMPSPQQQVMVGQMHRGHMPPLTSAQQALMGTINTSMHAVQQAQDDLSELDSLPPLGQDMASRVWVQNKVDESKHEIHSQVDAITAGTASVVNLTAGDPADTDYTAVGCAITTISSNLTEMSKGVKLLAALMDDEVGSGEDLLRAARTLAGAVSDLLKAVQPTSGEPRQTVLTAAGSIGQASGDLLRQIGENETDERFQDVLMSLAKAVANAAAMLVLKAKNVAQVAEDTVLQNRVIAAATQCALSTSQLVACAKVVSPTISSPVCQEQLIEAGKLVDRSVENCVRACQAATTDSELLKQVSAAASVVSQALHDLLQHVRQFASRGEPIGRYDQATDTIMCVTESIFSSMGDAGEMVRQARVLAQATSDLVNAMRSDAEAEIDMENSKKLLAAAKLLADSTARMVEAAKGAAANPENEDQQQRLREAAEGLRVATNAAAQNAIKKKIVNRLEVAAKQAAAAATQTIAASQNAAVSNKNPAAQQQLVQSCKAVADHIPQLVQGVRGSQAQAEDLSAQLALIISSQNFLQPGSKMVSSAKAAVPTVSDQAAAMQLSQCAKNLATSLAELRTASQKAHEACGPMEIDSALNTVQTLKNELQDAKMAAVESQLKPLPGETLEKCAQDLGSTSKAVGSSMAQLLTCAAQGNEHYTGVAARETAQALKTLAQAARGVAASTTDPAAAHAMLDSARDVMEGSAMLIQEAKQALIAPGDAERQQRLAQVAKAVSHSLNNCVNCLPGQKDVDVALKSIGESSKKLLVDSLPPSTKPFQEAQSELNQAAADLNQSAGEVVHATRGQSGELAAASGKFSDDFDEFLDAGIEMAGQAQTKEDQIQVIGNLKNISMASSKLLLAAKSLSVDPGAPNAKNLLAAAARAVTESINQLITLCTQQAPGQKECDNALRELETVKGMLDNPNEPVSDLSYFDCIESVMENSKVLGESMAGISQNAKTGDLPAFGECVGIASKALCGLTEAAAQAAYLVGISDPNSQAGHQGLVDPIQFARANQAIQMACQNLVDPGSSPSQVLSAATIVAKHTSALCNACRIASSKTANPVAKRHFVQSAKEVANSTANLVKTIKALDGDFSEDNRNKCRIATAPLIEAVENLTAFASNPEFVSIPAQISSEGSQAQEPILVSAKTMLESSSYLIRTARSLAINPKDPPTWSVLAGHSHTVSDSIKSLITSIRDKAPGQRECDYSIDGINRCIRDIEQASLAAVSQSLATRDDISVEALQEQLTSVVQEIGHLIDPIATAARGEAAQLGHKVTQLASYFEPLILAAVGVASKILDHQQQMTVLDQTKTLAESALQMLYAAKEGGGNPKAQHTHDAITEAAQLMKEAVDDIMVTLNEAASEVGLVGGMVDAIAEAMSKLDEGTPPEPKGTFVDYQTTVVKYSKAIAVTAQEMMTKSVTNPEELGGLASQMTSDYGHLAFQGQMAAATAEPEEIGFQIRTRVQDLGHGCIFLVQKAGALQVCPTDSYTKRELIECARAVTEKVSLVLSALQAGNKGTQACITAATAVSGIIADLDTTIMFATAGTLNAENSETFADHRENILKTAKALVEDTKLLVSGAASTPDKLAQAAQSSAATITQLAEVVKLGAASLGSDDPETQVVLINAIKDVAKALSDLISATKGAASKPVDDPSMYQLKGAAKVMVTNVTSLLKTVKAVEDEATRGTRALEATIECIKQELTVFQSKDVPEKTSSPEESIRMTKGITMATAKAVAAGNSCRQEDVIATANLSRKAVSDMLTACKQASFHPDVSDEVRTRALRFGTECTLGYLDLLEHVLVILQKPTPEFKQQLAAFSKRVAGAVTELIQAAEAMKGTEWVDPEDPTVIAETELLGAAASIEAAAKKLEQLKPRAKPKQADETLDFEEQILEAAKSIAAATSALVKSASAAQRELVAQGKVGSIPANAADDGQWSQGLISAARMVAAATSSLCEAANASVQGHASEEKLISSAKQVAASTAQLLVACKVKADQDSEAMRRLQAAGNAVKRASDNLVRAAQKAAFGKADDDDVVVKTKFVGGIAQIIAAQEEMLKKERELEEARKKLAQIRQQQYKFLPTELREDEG
UniProt Q13445: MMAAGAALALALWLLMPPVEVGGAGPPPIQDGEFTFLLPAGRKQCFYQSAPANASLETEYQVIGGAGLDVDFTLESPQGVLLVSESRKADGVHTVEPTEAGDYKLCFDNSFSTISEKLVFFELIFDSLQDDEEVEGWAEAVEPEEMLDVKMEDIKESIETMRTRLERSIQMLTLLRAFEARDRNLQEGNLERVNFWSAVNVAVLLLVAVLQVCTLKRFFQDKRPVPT
UniProt Q9Y3A6: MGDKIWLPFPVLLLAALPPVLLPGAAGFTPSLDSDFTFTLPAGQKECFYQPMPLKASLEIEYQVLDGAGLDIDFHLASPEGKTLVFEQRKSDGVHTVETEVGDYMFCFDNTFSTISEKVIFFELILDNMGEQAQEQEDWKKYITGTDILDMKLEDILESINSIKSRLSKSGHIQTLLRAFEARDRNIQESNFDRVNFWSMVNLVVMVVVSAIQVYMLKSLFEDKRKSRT

Tests used:
Assay in all cases: log2 fold change, soluble protein after heating vs DMSO (PISA); higher = thermal stabilisation; K562 cells, 10 uM, 30 min; active = over 0.2 and 3.5 SD of the protein, either way, in both replicates (recomputed)
[1] = compound: CS(=O)(=O)c1ccc(-c2cnc(N)c(C(=O)Nc3ccccc3)n2)cc1
In short: (§1)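 Soluble protein was quantified by TMTpro 16plex LC-MS/MS after channel sums were equalised. It was obtained as the supernatant after 21,000xg for 90 min from pooled aliquots of K562 cells (2×10^6 cells/mL, 10 μM compound, 30 min) heated for 3 min across 48°C-58°C and extracted in PBS with 0.5% NP-40 at 4°C. Thermal stability values are relative to control samples and come from duplicates. They are given as log2 fold changes.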

[2] = compound: C[C@@H](Oc1cc(-c2cnn(C3CCNCC3)c2)cnc1N)c1c(Cl)ccc(F)c1Cl [crizotinib]
In short: as §1

[3] = compound: C[C@@H]1COCCN1C2=NC(=NC(=C2)C3(CC3)S(=O)(=O)C)C4=C5C=CNC5=CC=C4
In short: as §1

[4] = compound: C[C@H](C1=CC=C(C=C1)C(=O)NC2=C3C=CNC3=NC=C2)N
In short: as §1

[5] = compound: C[C@H](Nc1ncnc2nc[nH]c12)c1cc2cccc(Cl)c2c(=O)n1-c1ccccc1 [duvelisib]
In short: as §1

[6] = compound: Cc1cc(Nc2cc(CN3CCOCC3)c3nc(C)c(Cc4ccc(Cl)cc4F)n3n2)n[nH]1 [gandotinib]
In short: as §1

[7] = compound: Cc1cc(Nc2cc(N3CCN(C)CC3)nc(Sc3ccc(NC(=O)C4CC4)cc3)n2)n[nH]1 [tozasertib]
In short: as §1

[8] = compound: Cc1cc(SCc2sc(-c3ccc(C(F)(F)F)cc3)nc2C)ccc1OCC(=O)O
In short: as §1

[9] = compound: Cc1ccc(-n2nc(C(C)(C)C)cc2NC(=O)Nc2ccc(OCCN3CCOCC3)c3ccccc23)cc1 [doramapimod]
In short: as §1

[10] = compound: Cc1ccc(C(=O)N(CCCN)[C@@H](c2nc3cc(Cl)ccc3c(=O)n2Cc2ccccc2)C(C)C)cc1 [ispinesib]
In short: as §1

[11] = compound: Cc1ccc(NC(=O)c2ccc(CN3CC[C@H](N(C)C)C3)c(C(F)(F)F)c2)cc1Nc1nccc(-c2cncnc2)n1 [bafetinib]
In short: as §1

[12] = compound: Cc1cccc(CC(=O)N2CCc3c2ccc(-c2cn(C)c4ncnc(N)c24)c3F)n1
In short: as §1

[13] = compound: Cc1cn(-c2cc(NC(=O)c3ccc(C)c(Nc4nccc(-c5cccnc5)n4)c3)cc(C(F)(F)F)c2)cn1 [nilotinib]
In short: as §1

[14] = compound: Cc1nc(Nc2n[nH]c3c2CN(C(=O)N[C@H](CN(C)C)c2ccccc2)C3(C)C)c2sccc2n1
In short: as §1

[15] = compound: Cc1nc(Nc2ncc(C(=O)Nc3c(C)cccc3Cl)s2)cc(N2CCN(CCO)CC2)n1 [dasatinib]
In short: as §1

[16] = compound: Cc1ncc(-c2ccnc(Nc3ccc(S(C)(=O)=O)cc3)n2)n1C(C)C
In short: as §1

[17] = compound: Cn1cc(-c2ccc3c(c2)CCN3C(=O)Cc2cccc(C(F)(F)F)c2)c2c(N)ncnc21
In short: as §1

[18] = compound: Cn1cc(-c2ccc3nnc(C(F)(F)c4ccc5ncccc5c4)n3n2)cn1
In short: as §1

[19] = compound: Cn1cncc1[C@@](N)(c1ccc(Cl)cc1)c1ccc2c(c1)c(-c1cccc(Cl)c1)cc(=O)n2C [tipifarnib]
In short: as §1

[20] = compound: FC(F)(F)c1ccc(/C=C/c2nc(COc3ccc(CCCCn4ccnn4)cc3)co2)cc1 [mubritinib]
In short: as §1

Measured: log2 fold change

TMX3 (UniProt Q96JJ7)
inactive: [1] -0.046 | [2] 0.04 | [3] -0.011 | [4] 0.093 | [5] 0.045 | [6] -0.001 | [7] -0.008 | [8] 0 | [9] 0.025 | [10] 0.056 | [11] -0.04 | [12] -0.073 | [13] -0.02 | [14] 0.012 | [15] 0.036 | [16] -0.031 | [17] -0.029 | [18] 0.012 | [19] 0.026 | [20] -0.011

TMOD3 (UniProt Q9NYL9)
inactive: [1] -0.03 | [2] -0.005 | [3] -0.012 | [4] 0.096 | [5] 0.026 | [6] -0.076 | [7] 0.065 | [8] 0.06 | [9] -0.005 | [10] -0.032 | [11] -0.048 | [12] 0.057 | [13] -0.061 | [14] -0.09 | [15] -0.038 | [16] 0.041 | [17] -0.021 | [18] 0.011 | [19] -0.044 | [20] 0.023

TMEM185B (UniProt Q9H7F4)
inactive: [1] 0.145 | [2] 0.01 | [3] -0.003 | [4] 0.015 | [5] 0.137 | [6] 0.027 | [7] 0.018 | [8] 0.005 | [9] -0.068 | [10] -0.179 | [11] -0.093 | [12] -0.004 | [13] 0.002 | [14] -0.041 | [15] 0.001 | [16] 0.152 | [17] -0.035 | [18] 0.01 | [19] -0.057 | [20] 0.057

TMED2 (UniProt Q15363)
inactive: [1] 0.015 | [2] 0.02 | [3] 0.045 | [4] -0.007 | [5] 0.01 | [6] -0.006 | [7] -0.027 | [8] 0.008 | [9] 0.058 | [10] 0.002 | [11] -0.025 | [12] 0.006 | [13] -0.007 | [14] 0.005 | [15] 0.062 | [16] 0.02 | [17] 0.062 | [18] 0 | [19] -0.022 | [20] 0.033

2 neighbouring records from above:
TMEM185B (UniProt Q9H7F4)
inactive: [1] 0.145 | [2] 0.01 | [3] -0.003 | [4] 0.015 | [5] 0.137 | [6] 0.027 | [7] 0.018 | [8] 0.005 | [9] -0.068 | [10] -0.179 | [11] -0.093 | [12] -0.004 | [13] 0.002 | [14] -0.041 | [15] 0.001 | [16] 0.152 | [17] -0.035 | [18] 0.01 | [19] -0.057 | [20] 0.057

TMED2 (UniProt Q15363)
inactive: [1] 0.015 | [2] 0.02 | [3] 0.045 | [4] -0.007 | [5] 0.01 | [6] -0.006 | [7] -0.027 | [8] 0.008 | [9] 0.058 | [10] 0.002 | [11] -0.025 | [12] 0.006 | [13] -0.007 | [14] 0.005 | [15] 0.062 | [16] 0.02 | [17] 0.062 | [18] 0 | [19] -0.022 | [20] 0.033

Next part.

TMED4 (UniProt Q7Z7H5)
inactive: [1] 0.018 | [2] 0.044 | [3] 0.037 | [4] -0.039 | [5] 0.028 | [6] 0.018 | [7] 0.03 | [8] -0.07 | [9] -0.03 | [10] 0.062 | [11] -0.031 | [12] -0.027 | [13] -0.008 | [14] 0.019 | [15] 0.052 | [16] 0.009 | [17] 0.102 | [18] 0.066 | [19] -0.043 | [20] 0.03

TMUB2 (UniProt Q71RG4)
inactive: [1] -0.101 | [2] 0.006 | [3] -0.014 | [4] 0.035 | [5] -0.067 | [6] -0.042 | [7] -0.049 | [8] -0.103 | [9] 0.052 | [10] -0.101 | [11] 0.026 | [12] -0.112 | [13] 0.03 | [14] 0.256 | [15] 0.118 | [16] 0.096 | [17] 0.003 | [18] 0.021 | [19] 0.101 | [20] 0.079

TMED10 (UniProt P49755)
inactive: [1] 0.064 | [2] 0.039 | [3] 0 | [4] -0.033 | [5] 0.018 | [6] -0.027 | [7] -0.005 | [8] 0.006 | [9] -0.008 | [10] 0.011 | [11] -0.027 | [12] -0.007 | [13] 0.027 | [14] -0.002 | [15] 0.036 | [16] 0 | [17] 0.082 | [18] -0.019 | [19] -0.036 | [20] 0.007

TMPO isoform 2 (UniProt P42167)
inactive: [1] -0.149 | [2] 0.122 | [3] -0.114 | [4] 0.067 | [5] 0.031 | [6] -0.284 | [7] -0.069 | [8] 0.056 | [9] -0.098 | [10] -0.02 | [11] 0.173 | [12] -0.198 | [13] -0.019 | [14] -0.009 | [15] 0.043 | [16] -0.061 | [17] 0.123 | [18] 0.071 | [19] 0.036 | [20] 0.074

TMPPE (UniProt Q6ZT21)
inactive: [1] -0.001 | [2] -0.009 | [3] 0.087 | [4] 0.004 | [5] 0.024 | [6] 0.113 | [7] -0.034 | [8] -0.039 | [9] 0.018 | [10] -0.011 | [11] 0.037 | [12] -0.037 | [13] 0.001 | [14] 0.011 | [15] 0.017 | [16] -0.05 | [17] 0.039 | [18] 0.049 | [19] 0.077 | [20] 0.011

TMEM189 (UniProt A5PLL7)
inactive: [1] 0.01 | [2] 0.009 | [3] -0.02 | [4] -0.001 | [5] 0.137 | [6] -0.034 | [7] 0.046 | [8] -0.035 | [9] -0.08 | [10] 0.017 | [11] 0.031 | [12] 0.139 | [13] -0.075 | [14] 0.014 | [15] 0.094 | [16] -0.054 | [17] -0.025 | [18] 0.065 | [19] -0.079 | [20] -0.043

TMX4 (UniProt Q9H1E5)
inactive: [1] 0.038 | [2] 0.063 | [3] -0.026 | [4] 0.169 | [5] 0.012 | [6] 0.137 | [7] -0.013 | [8] 0.045 | [9] 0.046 | [10] -0.007 | [11] -0.101 | [12] -0.145 | [13] 0.096 | [14] 0.039 | [15] -0.025 | [16] -0.116 | [17] -0.005 | [18] -0.034 | [19] 0.128 | [20] 0.017

TMEM38B (UniProt Q9NVV0)
inactive: [1] 0.061 | [2] -0.062 | [3] 0.05 | [4] -0.135 | [5] -0.012 | [6] -0.03 | [7] -0.029 | [8] -0.035 | [9] -0.095 | [10] 0.036 | [11] -0.079 | [12] -0.004 | [13] -0.012 | [14] 0.003 | [15] 0.021 | [16] -0.032 | [17] -0.021 | [18] -0.045 | [19] 0.01 | [20] 0.146

TLN2 (UniProt Q9Y4G6)
inactive: [1] -0.029 | [2] -0.002 | [3] 0.044 | [4] -0.008 | [5] -0.071 | [6] 0.02 | [7] 0.028 | [8] 0.043 | [9] -0.008 | [10] -0.117 | [11] 0.164 | [12] 0.024 | [13] -0.055 | [14] 0.045 | [15] 0.002 | [16] -0.042 | [17] 0.046 | [18] 0.003 | [19] -0.039 | [20] -0.062

TMED9 (UniProt Q9BVK6)
inactive: [1] -0.006 | [2] 0.045 | [3] 0.012 | [4] -0.069 | [5] 0.01 | [6] 0.023 | [7] -0.006 | [8] 0.026 | [9] 0.025 | [10] 0.003 | [11] -0.005 | [12] -0.082 | [13] -0.021 | [14] -0.001 | [15] 0.037 | [16] 0.034 | [17] 0.021 | [18] 0.025 | [19] 0.012 | [20] 0.043

TMED1 (UniProt Q13445)
inactive: [1] -0.029 | [2] 0.149 | [3] 0.046 | [4] -0.116 | [5] 0.023 | [6] -0.023 | [7] -0.004 | [8] -0.017 | [9] 0.078 | [10] -0.022 | [11] -0.014 | [12] 0 | [13] -0.001 | [14] 0.035 | [15] -0.015 | [16] -0.004 | [17] 0.023 | [18] -0.015 | [19] -0.03 | [20] 0.053

TMED5 (UniProt Q9Y3A6)
inactive: [1] 0.006 | [2] -0.055 | [3] 0.038 | [4] 0.071 | [5] 0.054 | [6] -0.121 | [7] 0.01 | [8] 0.01 | [9] 0.032 | [10] -0.018 | [11] 0.004 | [12] -0.024 | [13] -0.051 | [14] 0.033 | [15] 0.034 | [16] 0.019 | [17] 0.029 | [18] 0.034 | [19] -0.023 | [20] -0.035
